Experimental data taken from PubChem BioAssay AID1347075 (National Center for Advancing Translational Sciences (NCATS), 2019).
About 5,500 (1.4%) of roughly 400,000 compounds were called active. The inconclusive results got no clear call from the source; some entries with a clear call stand among them for comparison. Calls follow the shape of the dose curve; as a rule, active = well fitted cell-killing curve with a large enough effect; inconclusive = small, poorly fitted or top-dose-only effect, or effect the other way; inactive = flat fitted curve, though single readings scatter. Potencies beside an inconclusive call are fits to weak or partial responses and may not hold up.

Assay: qHTS assay for MDR1-selective chemotherapeutics: Primary screen using the parental adenocarcinoma cell KB-3-1; also: nearly all actives have a fitted effect of over 60% in size
Settings: KB-3-1 viability, CellTiter-Glo ATP luminescence, 72 h; activity change, negative = cytotoxic: at 46.1 µM (top of the series)
Outline: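 Here the drug-naive KB-3-1 line serves as comparator for MDR sub-line selectivity; cells received compound titrations, 72 h at 37 °C, then CellTiter-Glo readout.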
% is scaled to controls: 0 for no effect and ±100 for the full control effect; potency is read from the fitted curve at half-maximal effect.

Row | Compound | Potency | activity change, negative = cytotoxic
1 | COc1cccc(Nc2nc(-c3sc(NC(=O)c4ccccc4)nc3C)cs2)c1 | inconclusive: 29.1 µM [cytotoxic, single point] | –
2 | CC(=O)c1ccc[n+](C(C)CCC(C)[n+]2cccc(C(C)=O)c2)c1 (centres undefined) | inconclusive: 32.6 µM [rising, partial curve, poor fit] | –
3 | O=C1c2ccccc2NC2(CCCC2)N1O | inconclusive: 29.1 µM [cytotoxic, single point] | –
4 | Cc1nn(-c2ccccc2)c2nc(-c3cccs3)cc(C(=O)NN)c12 | inconclusive: 29.1 µM [cytotoxic, partial curve, poor fit] | –
5 | COCCn1c(SCC(=O)c2c(N)n(C3CC3)c(=O)[nH]c2=O)nnc1-c1ccc(Cl)cc1 | – | inactive: 3.19%
6 | CCOc1ccc(NC(=O)CSc2nnnn2C2CCCC2)cc1 | – | inactive: -20%
7 | CC1(C)c2[nH]c3ccccc3c2C[C@@H]2C(=O)N(Cc3ccc(F)cc3)C(=O)N21 | inconclusive: 29.1 µM [cytotoxic, single point] | –
8 | Cc1cc(Br)ccc1NC(=O)c1sc2ncnc(N3CCN(c4ccccn4)CC3)c2c1C | active: 6.51 µM | –
9 | Cn1nc(-c2cccnc2)nc2c(=O)n(C)c(=O)nc1-2 | inconclusive: 16.4 µM [cytotoxic, partial curve, poor fit] | –
10 | CCN1CCN(c2nc(Nc3cccc(OC)c3)nc(N)c2[N+](=O)[O-])CC1 | inconclusive: 23.1 µM [cytotoxic, single point] | –
11 | CCOC(=O)c1nc[nH]c1C | inconclusive: 16.4 µM [cytotoxic, single point] | –
12 | CC(=O)Nc1ccc(NS(=O)(=O)c2ccc(CN3C(=O)c4cccnc4C3=O)cc2)cc1 | – | inactive: -13.2%
13 | CN1CCN(C(=O)c2cccc(-c3cnc4cnc(-c5ccccc5Oc5ccccc5)cn34)c2)CC1 | inconclusive: 29.1 µM [cytotoxic, single point] | –
14 | COc1ccccc1CCNC(=O)Cn1ccc2cc(S(=O)(=O)N3CCC(C)CC3)ccc21 | – | inconclusive: -59.4%
15 | CC(=O)Cc1nsc(NC(=O)c2ccc(-c3cc(Cl)ccc3Cl)o2)n1 | inconclusive: 29.1 µM [cytotoxic, single point] | –
16 | COc1ccc(S(=O)(=O)N2CCCCC2c2cc(C(=O)Nc3ccc(OC)cc3C)no2)cc1 (centres undefined) | active: 18.4 µM | –
17 | Cn1c(SCC(=O)NNC(=O)Nc2ccccc2)nnc1-c1ccccc1 | inconclusive: 0.58 µM [rising, full curve, poor fit] | –
18 | O=C(/C=C/c1cccs1)N1CCN(c2ccc(O)cc2)CC1 | inconclusive: 29.1 µM [cytotoxic, single point] | –
19 | O=S(Cc1ccccc1)CC(O)(c1ccc(Cl)cc1)c1ccc(Cl)cc1 (centres undefined) | inconclusive: 23.1 µM [cytotoxic, single point] | –
20 | COc1ccc2[nH]c3c(c2c1)[C@@H]1CCN2C(=O)CCC[C@H](C3)[C@H]12 | – | inactive: 0%
21 | CC1CCN(C(=S)Nc2ccc(F)cc2)CC1 | inconclusive: 8.2 µM [cytotoxic, partial curve, poor fit] | –
22 | CCOC(=O)C1(CCOC)CCN(Cc2ccncc2)CC1 | – | inactive: 0.954%
23 | Cc1ccc(NC(=O)C(=O)NCC(c2cccnc2)N2CCN(Cc3ccccc3)CC2)cc1Cl (centres undefined) | – | inactive: -5.4%

Quoted from the listing.
Under Potency, O=C1c2ccccc2NC2(CCCC2)N1O has the entry inconclusive: 29.1 µM [cytotoxic, single point]
Under Potency, CCOC(=O)c1nc[nH]c1C has the entry inconclusive: 16.4 µM [cytotoxic, single point]

Following part

Row | Compound | Potency | activity change, negative = cytotoxic
24 | COc1ccc(CNC(=O)Cn2c(=O)n3nc(-c4ccc(OC)cc4)nc3c3ccccc32)cc1 | – | inactive: -7.7%
25 | N#Cc1ccc(-c2ccco2)nc1SCc1ccccc1 | inconclusive: 18.4 µM [cytotoxic, single point] | –
26 | COc1ccc2nc3cc(Cl)ccc3c(Nc3ccc(O)c(CN4CCN(C)CC4)c3)c2c1 | inconclusive: 29.1 µM [cytotoxic, single point] | –
27 | CC1=CC(C)(C)NC(=S)N1c1ccc(C)cc1C | inconclusive: 29.1 µM [cytotoxic, single point] | –
28 | COc1ccc(-n2cc(-c3ccccc3)c3c(=O)[nH]cnc32)cc1 | – | inactive: -2.82%
29 | CNC[C@@H](Cc1ccccc1)NC[C@@H](CC1CCCCC1)NCCCc1ccccc1 | inconclusive: 29.1 µM [cytotoxic, single point] | –
30 | O=C(C[C@H]1C(=O)N(Cc2ccccc2)C[C@@H]1Cc1ccccc1)Nc1ccccc1 | inconclusive: 18.4 µM [cytotoxic, single point] | –
31 | CC(=O)c1cccc(NS(=O)(=O)c2ccc3[nH]c4c(c3c2)CCCCC4)c1 | inconclusive: 23.1 µM [cytotoxic, single point] | –
32 | Cc1cc2c(cc1S(=O)(=O)CCC(=O)Nc1cccc(C(F)(F)F)c1)OCC(=O)N2 | inconclusive: 23.1 µM [rising, single point] | –
33 | O=C(Nc1ccccc1)Nc1ccc(Cl)c(S(=O)(=O)N2CCOCC2)c1 | inconclusive: 5.17 µM [cytotoxic, partial curve, poor fit] | –
34 | Cc1cccc2sc(NC(=O)CCNS(=O)(=O)c3cccc4nonc34)nc12 | inconclusive: 18.4 µM [cytotoxic, single point] | –
35 | COc1ccc(-c2noc(CSc3nnc(C)n3-c3ccc(F)cc3)n2)cc1 | – | inactive: -2.37%
36 | Cn1c(COc2ccccc2Br)nc2ccccc21 | – | inactive: -9.41%
37 | COc1cc(C2c3[nH]c4ccccc4c3CC3COC(=O)N32)cc(OC)c1O (centres undefined) | inconclusive: 0.0065 µM [cytotoxic, full curve, poor fit] | –
38 | C[C@@H](c1ccccc1)N1C[C@H](COCc2ccccc2)Oc2cc(N3CC[C@@H](O)C3)ccc2S1(=O)=O | – | inactive: -4.35%
39 | O=C(Cc1cccs1)Nc1nnc(SCC(=O)NC2CCCCC2)s1 | inconclusive: 29.1 µM [rising, single point] | –
40 | O=C(c1ccco1)N1CCCC(c2nc3c(nnn3Cc3c(Cl)cccc3Cl)c(=O)[nH]2)C1 (centres undefined) | – | inactive: -12.8%
41 | N#CC1=C(N)OC2=C(C(=O)CCC2)C1c1cc2c(cc1Cl)OCO2 (centres undefined) | – | inactive: -4.34%
42 | Cc1cccc(S(=O)(=O)N(C)C[C@H]2OCc3cnnn3CCCC(=O)N([C@H](C)CO)C[C@@H]2C)c1 | inconclusive: 20.6 µM [rising, single point] | –
43 | CN(c1ccccc1C(=O)Nc1ccc(CC#N)cc1)S(=O)(=O)c1ccccc1 | – | inactive: 18.3%
44 | CN(C)CCCNC(=O)/C(=C\c1ccc(-c2ccc(Br)cc2)o1)NC(=O)c1ccccc1 | inconclusive: 23.1 µM [cytotoxic, single point] | –
45 | CCCCS/C(N)=N/N=C/c1cc(C)ccc1O | inconclusive: 29.1 µM [cytotoxic, single point] | –
46 | CCOC(=O)c1[nH]c2c(c1C)C(=O)CC(c1ccc(N(C)C)cc1)C2 (centres undefined) | inconclusive: 23.1 µM [cytotoxic, single point] | –

Row | Compound | Potency | activity change, negative = cytotoxic
47 | COc1ccc(C)cc1-n1c(N)c(C#N)c(C#N)c1-c1ccc(OC)c(OC)c1OC | inconclusive: 29.1 µM [cytotoxic, single point] | –
48 | CC(C)c1ccc(NC(=O)C2Cc3c(-c4ccccc4Oc4ccccc4)ccnc3O2)cc1 (centres undefined) | inconclusive: 29.1 µM [cytotoxic, single point] | –
49 | CCn1nc(C(=O)Nc2ccc3nc(C)sc3c2)c2ccccc2c1=O | inconclusive: 6.51 µM [rising, partial curve, poor fit] | –
50 | COc1ccc(/C=N/NC(=O)CCc2ccccc2)cc1O | inconclusive: 29.1 µM [cytotoxic, single point] | –
51 | O=C(Nc1cccc(-c2ccc(N3CCOCC3)nn2)c1)c1ccc(Cl)cc1 | inconclusive: 2.06 µM [rising, single point] | –
52 | CC(C)Oc1cccc(NC(=O)c2cnccc2C(F)(F)F)c1 | – | inactive: -2.14%
53 | COc1ccc(CC2(CO)CCN(Cc3ccncc3)CC2)cc1 | – | inactive: -1.19%
54 | CCN(CC)c1ccc(C(=O)N/N=C/c2ccccc2OC(F)F)cc1 | inconclusive: 23.1 µM [cytotoxic, single point] | –
55 | Cc1nn(-c2ccccc2)c(C)c1C(=O)Nc1nnc(-c2ccco2)o1 | inconclusive: 20.6 µM [cytotoxic, single point] | –
56 | CCn1c(=N)n(CC(=O)c2ccc(Cl)c(Cl)c2)c2ccccc21 | inconclusive: 29.1 µM [cytotoxic, single point] | –
57 | Cc1cccc(/C=N/NC(=O)c2cccc(Cl)c2)n1 | – | inactive: 2.96%
58 | Cc1ccc2nc(NC(=O)CSc3nccn3Cc3ccc(F)cc3)sc2c1 | – | inactive: -2.8%
59 | Cc1nc2ncccn2c1-c1csc(NCc2ccco2)n1 | inconclusive: 29.1 µM [cytotoxic, single point] | –
60 | Cc1ccc(-c2cc(C(=O)O)c3ccccc3n2)c(C)c1 | – | inactive: 0%
61 | CC(=O)Nc1sc(NC(=O)c2ccc(Cl)cc2)nc1-c1cccs1 | – | inactive: 4.86%
62 | Cc1ccc(S(=O)(=O)N(C)C[C@H]2Oc3cc(Br)ccc3S(=O)(=O)N([C@H](C)CO)C[C@@H]2C)cc1 | – | inactive: 23%
63 | CCNc1nc(Oc2ccc(OC)cc2)cc(C(F)(F)F)n1 | inconclusive: 29.1 µM [cytotoxic, single point] | –
64 | CCN1C(=O)[C@H]2[C@@H](c3ccc(-c4cc(C(C)=O)cs4)cc3)N3CCCC[C@@]3(C(=O)OC)[C@H]2C1=O | inconclusive: 25.9 µM [cytotoxic, single point] | –
65 | CCOC(=O)Nc1sc2nc(C)cc(C)c2c1-n1cccc1 | inconclusive: 20.6 µM [cytotoxic, partial curve, poor fit] | –
66 | O=C(CSc1nnc(-c2ccco2)n1Cc1ccco1)Nc1ccccc1 | – | inactive: 5.41%
67 | Cc1ccc(NC(=O)c2ccc(S(=O)(=O)NCc3ccco3)cc2)nc1 | active: 20.6 µM | –
68 | Cc1ccc(OCCNS(=O)(=O)c2ccc(Cl)cc2)cc1 | inconclusive: 25.9 µM [cytotoxic, single point] | –
69 | COc1cccc(N2CCN(C(=O)CN3CCSc4ccccc43)CC2)c1 | – | inactive: -20.5%
